Measured values as given in patent US20250339533A1.
Results are given in words; binding and its absence hold for the method and conditions named. Some entries that bind do so weakly or less than the wild type. Sequences can lack the tags named with a protein.

Legend:
[1] = target: Leader-VHH(aALFA)-G4S-CD8h-BBz-CAR (Human); experiment: flow cytometry, Jurkat cells expressing the modular CAR armed with 1 or 10 nM soluble adaptor, detected with anti-idiotype antibody
[2] = target: Leader-VHH(aALFA)-G4S-CD8h-BBz-CAR (Human); experiment: flow cytometry, Jurkat T cells expressing the modular CAR armed with soluble adaptor, stained with adaptor-specific antibody
[3] = target: Leader-VHH(aALFA)-G4S-CD8h-BBz-CAR (Human); experiment: flow cytometry, primary human T cells expressing the modular CAR armed with 100 nM soluble adaptor, stained with adaptor-specific antibody

Measured: binding

B1: Leader2-ALFA-VH/VL(aCLDN6)-His (scFv)
scFv: PSRLEEELRRRLTEPGGGGSGGGGSEVQLQQSGPELVKPGASMKISCKASGYSFTGYTMNWVKQSHGKNLEWIGLINPYNGGTIYNQKFKGKATLTVDKSSSTAYMELLSLTSEDSAVYYCARDYGFVLDYWGQGTTLTVSSGGGGSGGGGSGGGGSDIVLTQSPSIMSVSPGEKVTITCSASSSVSYMHWFQQKPGTSPKLSIYSTSNLASGVPARFSGRGSGTSYSLTISRVAAEDAATYYCQQRSNYPPWTFGGGTKLEIKRSDPAGGSHHHHHH
binds: all assays above
